Assay results as given in paper PMC6430831.
Results are given in words; binding and its absence hold for the method and conditions named. In cells and extracts the contact can be indirect. Some binding calls cover weakened binding; strength is not graded here. Sequences can lack the tags named with a protein.

Biological target: T1, GEF-H1 (S886A) variant (human) (UniProt Q92974)
T1 sequence: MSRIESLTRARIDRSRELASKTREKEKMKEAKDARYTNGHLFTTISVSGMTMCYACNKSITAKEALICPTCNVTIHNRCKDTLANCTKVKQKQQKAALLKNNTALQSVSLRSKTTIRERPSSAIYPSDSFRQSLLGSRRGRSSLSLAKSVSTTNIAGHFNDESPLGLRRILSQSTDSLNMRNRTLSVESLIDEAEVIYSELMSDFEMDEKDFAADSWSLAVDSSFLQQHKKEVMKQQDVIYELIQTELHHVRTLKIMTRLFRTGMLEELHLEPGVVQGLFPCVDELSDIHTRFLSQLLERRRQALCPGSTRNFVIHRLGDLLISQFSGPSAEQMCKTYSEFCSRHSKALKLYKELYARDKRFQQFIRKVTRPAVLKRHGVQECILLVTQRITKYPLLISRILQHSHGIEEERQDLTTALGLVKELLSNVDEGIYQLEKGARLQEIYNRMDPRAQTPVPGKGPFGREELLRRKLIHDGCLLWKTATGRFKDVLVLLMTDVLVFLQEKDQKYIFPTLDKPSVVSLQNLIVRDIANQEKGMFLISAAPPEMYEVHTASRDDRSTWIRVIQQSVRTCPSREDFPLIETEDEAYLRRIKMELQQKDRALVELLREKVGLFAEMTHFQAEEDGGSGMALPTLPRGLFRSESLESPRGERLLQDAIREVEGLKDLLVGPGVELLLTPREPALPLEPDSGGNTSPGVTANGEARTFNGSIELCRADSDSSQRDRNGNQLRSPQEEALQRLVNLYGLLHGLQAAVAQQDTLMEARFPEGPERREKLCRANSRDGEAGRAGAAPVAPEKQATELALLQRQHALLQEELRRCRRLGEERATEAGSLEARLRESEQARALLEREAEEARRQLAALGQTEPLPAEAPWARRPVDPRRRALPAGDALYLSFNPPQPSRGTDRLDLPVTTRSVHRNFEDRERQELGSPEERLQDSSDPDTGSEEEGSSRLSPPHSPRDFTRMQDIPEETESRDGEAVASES
Assay: co-IP; HEK293T cells transfected with the indicated plasmids (GEF-H1 WT or variants with IRF5, IKKε, IKKβ; with or without RIPK2 or NOD2); precipitated with anti-GEF-H1, protein G agarose; lysis buffer 1% NP-40, 20 mM Tris-HCl pH 7.4, 150 mM NaCl; partners detected by western blot

binding: binds
B1: human IKKε (pcDNA3-huIKKε-flag) (enzyme, UniProt Q14164 1-716)
chain: MQSTANYLWHTDDLLGQGATASVYKARNKKSGELVAVKVFNTTSYLRPREVQVREFEVLRKLNHQNIVKLFAVEETGGSRQKVLVMEYCSSGSLLSVLESPENAFGLPEDEFLVVLRCVVAGMNHLRENGIVHRDIKPGNIMRLVGEEGQSIYKLTDFGAARELDDDEKFVSVYGTEEYLHPDMYERAVLRKPQQKAFGVTVDLWSIGVTLYHAATGSLPFIPFGGPRRNKEIMYRITTEKPAGAIAGAQRRENGPLEWSYTLPITCQLSLGLQSQLVPILANILEVEQAKCWGFDQFFAETSDILQRVVVHVFSLSQAVLHHIYIHAHNTIAIFQEAVHKQTSVAPRHQEYLFEGHLCVLEPSVSAQHIAHTTASSPLTLFSTAIPKGLAFRDPALDVPKFVPKVDLQADYNTAKGVLGAGYQALRLARALLDGQELMFRGLHWVMEVLQATCRRTLEVARTSLLYLSSSLGTERFSSVAGTPEIQELKAAAELRSRLRTLAEVLSRCSQNITETQESLSSLNRELVKSRDQVHEDRSIQQIQCCLDKMNFIYKQFKKSRMRPGLGYNEEQIHKLDKVNFSHLAKRLLQVFQEECVQKYQASLVTHGKRMRVVHETRNHLRLVGCSVAACNTEAQGVQESLSKLLEELSHQLLQDRAKGAQASPPPIAPYPSPTRKDLLLHMQELCEGMKLLASDLLDNNRIIERLNRVPAPPDV
